Reference: patent US5840835A (Merck & Co., Inc., priority 1996, dated 1998)

Assay: solution-phase peptide synthesis; EDC/HOBT
Details: coupling step, of the theoretical yield, TFA salt

## EtOCO-(L)Cha (α-BOC)(L)Lys Nva.psi.[trans cPr]Nle-NH2
  step yield: 44%
